From the supplement of paper PMC10849652
The other results are listed elsewhere or left out.

Protein sequences, listed by entry. Tags and fused reporters are not part of them. Lines headed by an entry give the natural chain unless they say otherwise; changes in a name come on top.
UniProt P84103: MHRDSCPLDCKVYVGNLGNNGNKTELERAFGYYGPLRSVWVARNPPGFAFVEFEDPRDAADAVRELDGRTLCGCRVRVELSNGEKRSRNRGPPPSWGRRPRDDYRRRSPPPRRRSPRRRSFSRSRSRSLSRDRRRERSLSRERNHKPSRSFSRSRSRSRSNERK
UniProt P10124: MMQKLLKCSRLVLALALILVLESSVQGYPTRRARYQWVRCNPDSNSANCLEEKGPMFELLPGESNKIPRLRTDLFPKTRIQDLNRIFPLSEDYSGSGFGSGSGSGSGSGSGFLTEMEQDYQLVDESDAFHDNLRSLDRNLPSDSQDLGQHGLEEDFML
UniProt Q05519: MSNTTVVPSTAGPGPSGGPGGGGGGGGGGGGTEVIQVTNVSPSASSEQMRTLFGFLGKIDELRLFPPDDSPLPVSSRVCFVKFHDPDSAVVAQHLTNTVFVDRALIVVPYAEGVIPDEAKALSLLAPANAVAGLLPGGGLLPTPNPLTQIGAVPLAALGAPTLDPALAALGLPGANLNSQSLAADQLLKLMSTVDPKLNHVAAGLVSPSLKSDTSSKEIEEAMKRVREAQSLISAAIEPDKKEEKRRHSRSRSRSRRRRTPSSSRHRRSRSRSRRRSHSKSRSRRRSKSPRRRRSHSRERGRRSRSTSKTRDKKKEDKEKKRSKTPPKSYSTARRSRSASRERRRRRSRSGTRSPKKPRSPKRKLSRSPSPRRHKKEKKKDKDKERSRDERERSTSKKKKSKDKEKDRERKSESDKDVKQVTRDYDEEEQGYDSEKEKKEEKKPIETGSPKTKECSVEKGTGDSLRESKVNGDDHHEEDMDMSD
UniProt Q16629: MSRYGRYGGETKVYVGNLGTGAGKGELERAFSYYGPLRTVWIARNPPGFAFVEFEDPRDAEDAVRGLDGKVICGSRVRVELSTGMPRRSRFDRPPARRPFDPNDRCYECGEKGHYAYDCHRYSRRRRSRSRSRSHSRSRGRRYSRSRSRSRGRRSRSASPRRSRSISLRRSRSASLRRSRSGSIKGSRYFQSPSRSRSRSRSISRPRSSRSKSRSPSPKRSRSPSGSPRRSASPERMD
UniProt Q9UQ90: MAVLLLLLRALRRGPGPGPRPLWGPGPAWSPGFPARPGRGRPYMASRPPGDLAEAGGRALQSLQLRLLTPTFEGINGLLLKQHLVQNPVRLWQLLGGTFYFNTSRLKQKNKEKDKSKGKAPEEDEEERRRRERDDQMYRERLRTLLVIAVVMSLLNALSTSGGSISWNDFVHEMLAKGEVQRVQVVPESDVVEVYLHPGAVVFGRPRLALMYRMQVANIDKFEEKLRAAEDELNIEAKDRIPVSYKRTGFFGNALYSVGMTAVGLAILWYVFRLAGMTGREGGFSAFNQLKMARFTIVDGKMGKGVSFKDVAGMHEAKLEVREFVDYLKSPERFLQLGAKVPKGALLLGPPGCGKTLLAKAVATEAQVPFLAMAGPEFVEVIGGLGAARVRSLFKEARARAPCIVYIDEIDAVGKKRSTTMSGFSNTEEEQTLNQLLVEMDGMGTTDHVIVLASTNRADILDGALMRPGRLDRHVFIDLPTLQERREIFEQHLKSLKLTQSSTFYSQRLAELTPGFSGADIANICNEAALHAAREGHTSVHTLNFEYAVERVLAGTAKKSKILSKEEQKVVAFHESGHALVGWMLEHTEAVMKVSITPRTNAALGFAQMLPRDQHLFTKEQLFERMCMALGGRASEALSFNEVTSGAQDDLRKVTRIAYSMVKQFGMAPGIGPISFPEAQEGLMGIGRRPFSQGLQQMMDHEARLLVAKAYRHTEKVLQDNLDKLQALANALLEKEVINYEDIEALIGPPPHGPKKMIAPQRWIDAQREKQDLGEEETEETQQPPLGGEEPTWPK
UniProt P42224: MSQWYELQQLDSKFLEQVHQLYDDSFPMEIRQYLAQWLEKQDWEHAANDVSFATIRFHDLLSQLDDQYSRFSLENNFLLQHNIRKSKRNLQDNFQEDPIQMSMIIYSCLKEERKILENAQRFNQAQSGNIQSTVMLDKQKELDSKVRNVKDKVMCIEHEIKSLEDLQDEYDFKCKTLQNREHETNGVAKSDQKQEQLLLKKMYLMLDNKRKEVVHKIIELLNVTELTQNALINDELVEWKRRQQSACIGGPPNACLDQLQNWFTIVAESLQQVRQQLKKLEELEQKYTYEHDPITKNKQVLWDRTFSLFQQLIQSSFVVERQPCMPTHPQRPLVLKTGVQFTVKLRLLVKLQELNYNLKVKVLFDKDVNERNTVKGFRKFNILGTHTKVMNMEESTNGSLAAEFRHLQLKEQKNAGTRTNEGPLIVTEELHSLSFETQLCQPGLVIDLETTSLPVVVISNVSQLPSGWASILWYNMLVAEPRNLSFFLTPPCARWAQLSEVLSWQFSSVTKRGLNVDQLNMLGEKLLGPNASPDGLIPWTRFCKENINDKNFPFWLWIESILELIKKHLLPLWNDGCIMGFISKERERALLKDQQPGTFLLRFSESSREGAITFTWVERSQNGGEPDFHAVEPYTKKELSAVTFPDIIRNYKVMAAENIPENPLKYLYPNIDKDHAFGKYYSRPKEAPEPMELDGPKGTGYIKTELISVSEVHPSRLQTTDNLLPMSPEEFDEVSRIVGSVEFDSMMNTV
UniProt Q9UHB9: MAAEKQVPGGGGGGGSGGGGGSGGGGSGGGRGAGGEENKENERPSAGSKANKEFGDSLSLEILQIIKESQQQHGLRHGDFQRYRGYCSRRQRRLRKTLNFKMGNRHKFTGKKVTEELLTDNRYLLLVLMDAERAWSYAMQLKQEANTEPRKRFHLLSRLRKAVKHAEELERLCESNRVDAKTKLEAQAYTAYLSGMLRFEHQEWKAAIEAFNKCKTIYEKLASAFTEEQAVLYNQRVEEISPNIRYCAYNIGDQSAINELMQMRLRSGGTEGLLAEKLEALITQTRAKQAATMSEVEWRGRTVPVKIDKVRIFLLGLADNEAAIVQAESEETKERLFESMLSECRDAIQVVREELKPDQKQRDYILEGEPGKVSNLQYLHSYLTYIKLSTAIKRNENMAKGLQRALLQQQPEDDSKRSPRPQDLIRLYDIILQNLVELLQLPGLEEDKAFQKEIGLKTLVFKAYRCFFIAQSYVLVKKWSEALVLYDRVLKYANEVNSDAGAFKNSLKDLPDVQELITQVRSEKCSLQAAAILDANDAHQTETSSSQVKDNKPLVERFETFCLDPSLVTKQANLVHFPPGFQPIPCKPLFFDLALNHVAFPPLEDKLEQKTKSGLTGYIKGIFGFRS
UniProt Q08945, whole entry, looked up: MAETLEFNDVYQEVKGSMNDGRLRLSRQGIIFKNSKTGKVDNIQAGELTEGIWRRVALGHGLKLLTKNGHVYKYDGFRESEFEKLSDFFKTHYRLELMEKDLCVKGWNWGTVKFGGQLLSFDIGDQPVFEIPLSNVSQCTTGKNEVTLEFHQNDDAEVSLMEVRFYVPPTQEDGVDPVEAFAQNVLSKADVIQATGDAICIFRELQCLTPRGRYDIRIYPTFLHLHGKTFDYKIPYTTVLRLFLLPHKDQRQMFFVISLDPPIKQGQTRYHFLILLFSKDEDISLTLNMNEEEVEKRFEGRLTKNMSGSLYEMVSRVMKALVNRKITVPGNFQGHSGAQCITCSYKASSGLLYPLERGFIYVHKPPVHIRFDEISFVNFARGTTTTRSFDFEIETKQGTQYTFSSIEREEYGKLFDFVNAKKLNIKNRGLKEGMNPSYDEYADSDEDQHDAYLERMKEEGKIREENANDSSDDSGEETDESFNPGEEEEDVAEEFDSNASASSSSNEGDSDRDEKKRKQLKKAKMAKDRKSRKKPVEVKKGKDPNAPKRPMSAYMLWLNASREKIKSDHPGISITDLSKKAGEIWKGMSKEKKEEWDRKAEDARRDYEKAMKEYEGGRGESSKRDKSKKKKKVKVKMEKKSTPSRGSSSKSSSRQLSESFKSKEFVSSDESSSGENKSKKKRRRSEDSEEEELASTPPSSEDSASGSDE
UniProt Q16385, whole entry, looked up: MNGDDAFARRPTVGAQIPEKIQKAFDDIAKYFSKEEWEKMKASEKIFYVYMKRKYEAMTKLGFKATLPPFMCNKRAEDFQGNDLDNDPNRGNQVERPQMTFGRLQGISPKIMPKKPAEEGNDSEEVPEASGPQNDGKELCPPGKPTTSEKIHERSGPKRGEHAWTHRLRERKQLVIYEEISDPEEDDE
UniProt Q92783: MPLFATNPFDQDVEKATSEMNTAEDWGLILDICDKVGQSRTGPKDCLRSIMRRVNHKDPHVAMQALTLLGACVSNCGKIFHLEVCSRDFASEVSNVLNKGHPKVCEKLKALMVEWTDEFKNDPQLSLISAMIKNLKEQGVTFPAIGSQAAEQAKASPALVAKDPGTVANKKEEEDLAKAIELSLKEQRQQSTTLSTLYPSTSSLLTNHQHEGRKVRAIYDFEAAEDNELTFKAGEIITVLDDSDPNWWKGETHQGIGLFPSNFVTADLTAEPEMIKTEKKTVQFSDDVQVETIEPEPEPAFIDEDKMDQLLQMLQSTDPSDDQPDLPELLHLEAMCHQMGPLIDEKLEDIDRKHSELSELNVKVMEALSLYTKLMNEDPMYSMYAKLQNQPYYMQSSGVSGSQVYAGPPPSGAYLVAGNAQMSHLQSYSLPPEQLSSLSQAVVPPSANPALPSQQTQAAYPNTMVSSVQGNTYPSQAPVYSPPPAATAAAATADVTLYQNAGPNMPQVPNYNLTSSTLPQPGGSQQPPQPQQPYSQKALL
UniProt Q15831: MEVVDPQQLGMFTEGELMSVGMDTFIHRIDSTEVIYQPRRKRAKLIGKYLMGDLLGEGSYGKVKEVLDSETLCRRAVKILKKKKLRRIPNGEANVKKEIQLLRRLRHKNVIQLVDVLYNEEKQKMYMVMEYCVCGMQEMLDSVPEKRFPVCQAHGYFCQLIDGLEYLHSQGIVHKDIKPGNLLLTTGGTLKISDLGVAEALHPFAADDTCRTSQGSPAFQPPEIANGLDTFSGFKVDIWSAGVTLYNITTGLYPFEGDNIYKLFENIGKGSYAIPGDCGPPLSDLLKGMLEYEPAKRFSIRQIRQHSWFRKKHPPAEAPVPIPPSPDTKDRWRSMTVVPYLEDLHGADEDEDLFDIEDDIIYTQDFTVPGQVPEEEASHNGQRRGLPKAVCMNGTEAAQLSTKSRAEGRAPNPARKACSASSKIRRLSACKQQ
UniProt P19623: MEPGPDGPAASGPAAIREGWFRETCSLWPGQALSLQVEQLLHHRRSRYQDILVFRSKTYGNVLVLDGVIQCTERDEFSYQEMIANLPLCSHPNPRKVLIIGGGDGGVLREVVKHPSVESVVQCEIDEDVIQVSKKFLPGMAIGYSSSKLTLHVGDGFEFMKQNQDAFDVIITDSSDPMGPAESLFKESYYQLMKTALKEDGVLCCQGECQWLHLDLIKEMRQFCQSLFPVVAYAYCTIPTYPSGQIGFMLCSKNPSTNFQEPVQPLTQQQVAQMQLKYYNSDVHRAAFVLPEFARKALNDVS
UniProt O76094: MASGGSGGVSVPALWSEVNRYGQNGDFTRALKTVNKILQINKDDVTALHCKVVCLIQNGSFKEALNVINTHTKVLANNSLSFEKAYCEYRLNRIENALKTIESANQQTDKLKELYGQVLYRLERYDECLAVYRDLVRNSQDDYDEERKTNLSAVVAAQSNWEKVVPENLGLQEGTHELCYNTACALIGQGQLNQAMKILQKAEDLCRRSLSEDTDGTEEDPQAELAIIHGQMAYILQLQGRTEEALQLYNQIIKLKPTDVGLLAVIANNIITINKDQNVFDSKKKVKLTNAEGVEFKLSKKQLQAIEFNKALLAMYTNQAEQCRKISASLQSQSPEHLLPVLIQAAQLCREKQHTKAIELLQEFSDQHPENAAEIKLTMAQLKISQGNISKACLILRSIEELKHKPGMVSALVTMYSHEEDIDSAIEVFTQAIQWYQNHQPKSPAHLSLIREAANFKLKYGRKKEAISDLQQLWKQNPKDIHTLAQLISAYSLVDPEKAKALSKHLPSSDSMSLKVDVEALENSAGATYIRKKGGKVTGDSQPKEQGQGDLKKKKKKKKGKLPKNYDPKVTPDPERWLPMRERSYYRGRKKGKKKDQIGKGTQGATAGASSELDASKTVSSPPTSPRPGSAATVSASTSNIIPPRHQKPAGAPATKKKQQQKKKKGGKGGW
UniProt P61011: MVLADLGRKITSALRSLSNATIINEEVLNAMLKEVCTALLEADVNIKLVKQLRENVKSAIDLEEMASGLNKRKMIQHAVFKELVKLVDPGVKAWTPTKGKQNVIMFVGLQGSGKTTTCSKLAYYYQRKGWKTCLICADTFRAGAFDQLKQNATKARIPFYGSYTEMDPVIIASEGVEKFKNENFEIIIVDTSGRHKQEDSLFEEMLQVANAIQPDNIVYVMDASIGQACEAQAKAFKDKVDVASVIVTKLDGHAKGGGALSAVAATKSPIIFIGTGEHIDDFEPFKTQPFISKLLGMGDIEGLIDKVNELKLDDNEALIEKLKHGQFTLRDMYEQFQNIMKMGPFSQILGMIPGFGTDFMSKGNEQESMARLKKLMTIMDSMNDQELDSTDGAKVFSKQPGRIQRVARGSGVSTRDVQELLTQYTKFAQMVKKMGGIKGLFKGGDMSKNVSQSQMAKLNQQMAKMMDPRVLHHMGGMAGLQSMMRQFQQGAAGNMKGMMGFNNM

These targets were tested with CCN(CCCOc1ccc2c(Nc3cc(CC(=O)Nc4cccc(F)c4)[nH]n3)ncnc2c1)CCOP(=O)(O)O [barasertib] (assay: log2 fold change, soluble protein after heating vs DMSO (PISA); higher = thermal stabilisation; K562 cells, 10 uM, 30 min; active = over 0.2 and 3.5 SD of the protein, either way, in both replicates (recomputed)).
Procedure, shortened: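 K562 cells at 2×10^6 cells/mL were exposed to 10 μM compound for 30 min, then aliquots were heated for 3 min across 48°C-58°C, pooled, and extracted in PBS containing 0.5% NP-40 at 4°C. The supernatant after 21,000xg for 90 min was taken as soluble protein and measured by TMTpro 16plex LC-MS/MS with channel sums equalised. Thermal stability is reported relative to control samples, with values from duplicates. Fold changes are given on a log2 scale.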

log2 fold change, inactive:
SPPL2B (UniProt Q8TCT7) 0
SRSF3 (UniProt P84103) -0.093
SRGAP2 (UniProt O75044) 0.04
SRGN (UniProt P10124) -0.047
SSR1 (UniProt P43307) -0.02
SPART (UniProt Q8N0X7) 0.037
SRSF11 (UniProt Q05519) 0.023
STIM1 (UniProt Q13586) 0.008
SRSF7 (UniProt Q16629) -0.105
STK25 (UniProt O00506) 0.025
SPHK1 isoform 2 (UniProt Q9NYA1) 0.035
SPG7 (UniProt Q9UQ90) -0.016
SPTA1 (UniProt P02549) 0.031
SPPL2A (UniProt Q8TCT8) 0.021
STAT1 (UniProt P42224) -0.07
SRP68 (UniProt Q9UHB9) 0.078
SSNA1 (UniProt O43805) 0.011
STAT5B (UniProt P51692) 0.113
STAU1 (UniProt O95793) -0.061
SPATA5 (UniProt Q8NB90) -0.051
SSRP1 (UniProt Q08945) 0.059
ST6GAL1 (UniProt P15907) -0.014
SSX2 (UniProt Q16385) 0.018
STAM (UniProt Q92783) 0.026
SQSTM1 (UniProt Q13501) 0.032
STK11 (UniProt Q15831) -0.097
STARD3 (UniProt Q14849) 0.016
SPINDOC (UniProt Q9BUA3) 0.129
ST3GAL2 (UniProt Q16842) 0.112
SPCS1, A0A5F9YFS9 -0.028
SRPRA (UniProt P08240) 0.04
SPTBN2 (UniProt O15020) -0.02
SRSF2 (UniProt Q01130) -0.007
SRM (UniProt P19623) 0.001
SREK1 isoform 2 (UniProt Q8WXA9) -0.057
SRP72 (UniProt O76094) 0.078
SRP54 (UniProt P61011) 0.048
ST7 (UniProt Q9NRC1) -0.013

Fetched one by one from the list above (2):
log2 fold change, inactive:
SPART (UniProt Q8N0X7) 0.037
SRP54 (UniProt P61011) 0.048
